Measurements reported in PubChem BioAssay AID1259308 (NCATS, 2017).
Shown is a random part of about 59,000 reagents tested. In the full data, about 1,510 (2.6%) are marked active. 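Calls use total luciferase alone and ignore viability, so some active siRNAs may act by altering cell number.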 A number with no mark means an inactive call. Reagents against one gene are numbered here. Not all columns of the deposit are shown.

- Assay: 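Candidate targets for better recombinant protein yield in mammalian cells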 (primary screen)
- Cells: human HEK293 embryonic kidney cells stably expressing firefly luciferase (HEK-CMV-Luc2-Hygro)
- Reagent: single siRNA against human genes, 0.8 pmol siRNA per well
- Duration: 72 h
- Detection: 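Luciferase light (ONE-Glo) measured on one replicate plate set and viability (CellTiter-Glo) on the other, scaled to a negative control siRNA, with robust z-scores and luciferase per cell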
- Reading the numbers: total luciferase, z-score: higher = more reporter protein produced
- Rule for the call: 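Active when the median/MAD z-score for overall luciferase is greater than 3; a gene was taken forward for validation with new siRNAs if at least two of its three siRNAs passed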
- Meaning of the calls: active = raised luciferase; inactive = no rise

Target gene | reagent | total luciferase, z-score
RGL4 (ral guanine nucleotide dissociation stimulator like 4) | 1 | -0.314
RGL4 (ral guanine nucleotide dissociation stimulator like 4) | 2 | -0.37
RGL4 (ral guanine nucleotide dissociation stimulator like 4) | 3 | -1.31
ERH (ERH mRNA splicing and mitosis factor) | 1 | -1.21
ERH (ERH mRNA splicing and mitosis factor) | 2 | -0.673
ERH (ERH mRNA splicing and mitosis factor) | 3 | -1.54
FHL3 (four and a half LIM domains 3) | 1 | -0.394
FHL3 (four and a half LIM domains 3) | 2 | 2.31
FHL3 (four and a half LIM domains 3) | 3 | 0.753
SEC31B (SEC31 homolog B, COPII component) | 1 | -0.0597
SEC31B (SEC31 homolog B, COPII component) | 2 | 0.635
SEC31B (SEC31 homolog B, COPII component) | 3 | 0.923
ZNF280B (zinc finger protein 280B) | 1 | 1.14
ZNF280B (zinc finger protein 280B) | 2 | 1.3
ZNF280B (zinc finger protein 280B) | 3 | -0.54
SRRM3 (serine/arginine repetitive matrix 3) | 1 | -0.0344
SRRM3 (serine/arginine repetitive matrix 3) | 2 | -0.0781
SRRM3 (serine/arginine repetitive matrix 3) | 3 | 0.0791
SLC44A4 | 1 | 1.52
SLC44A4 | 2 | 0.536
SLC44A4 | 3 | -1.62

Laid out differently: entries from further up.
| Target gene | reagent | total luciferase, z-score |
| --- | --- | --- |
| SRRM3 (serine/arginine repetitive matrix 3) | 2 | -0.0781 |
| SRRM3 (serine/arginine repetitive matrix 3) | 3 | 0.0791 |
| SLC44A4 | 1 | 1.52 |
| SLC44A4 | 2 | 0.536 |
| SLC44A4 | 3 | -1.62 |

The results go on:
Target gene | reagent | total luciferase, z-score
STX1B (syntaxin 1B) | 1 | -0.839
STX1B (syntaxin 1B) | 2 | 1.79
STX1B (syntaxin 1B) | 3 | 1.17
CEACAM21 (CEA cell adhesion molecule 21) | 1 | 2.19
CEACAM21 (CEA cell adhesion molecule 21) | 2 | 0.314
CEACAM21 (CEA cell adhesion molecule 21) | 3 | -0.53
PLA2G4C (phospholipase A2 group IVC) | 1 | -0.0648
PLA2G4C (phospholipase A2 group IVC) | 2 | 0.816
PLA2G4C (phospholipase A2 group IVC) | 3 | 0.201
CGAS (cyclic GMP-AMP synthase) | 1 | 1.35
CGAS (cyclic GMP-AMP synthase) | 2 | -0.0794
CGAS (cyclic GMP-AMP synthase) | 3 | -0.293
SAMD4A (sterile alpha motif domain containing 4A) | 1 | 0.405
SAMD4A (sterile alpha motif domain containing 4A) | 2 | 0.249
SAMD4A (sterile alpha motif domain containing 4A) | 3 | -1.22
LTF (lactotransferrin) | 1 | 0.292
LTF (lactotransferrin) | 2 | -1.54
LTF (lactotransferrin) | 3 | -0.0425
PDHB (pyruvate dehydrogenase E1 subunit beta) | 1 | 1.34
PDHB (pyruvate dehydrogenase E1 subunit beta) | 2 | 0.214
PDHB (pyruvate dehydrogenase E1 subunit beta) | 3 | 0.529
MDGA2 (MAM domain containing glycosylphosphatidylinositol anchor 2) | 1 | 1.43
MDGA2 (MAM domain containing glycosylphosphatidylinositol anchor 2) | 2 | 0.831
MDGA2 (MAM domain containing glycosylphosphatidylinositol anchor 2) | 3 | 0.115
SGO2 (shugoshin 2) | 1 | 0.522
SGO2 (shugoshin 2) | 2 | 0.145
SGO2 (shugoshin 2) | 3 | 0.385
TMEM183BP (transmembrane protein 183B, pseudogene) | 1 | -0.321
TMEM183BP (transmembrane protein 183B, pseudogene) | 2 | 0.951
TMEM183BP (transmembrane protein 183B, pseudogene) | 3 | 0.321
LINC01551 (long independently transcribed non-coding RNA 1551) | 1 | 0.579
LINC01551 (long independently transcribed non-coding RNA 1551) | 2 | 0.27
LINC01551 (long independently transcribed non-coding RNA 1551) | 3 | -0.511
PHC2 (polyhomeotic homolog 2) | 1 | -0.642
PHC2 (polyhomeotic homolog 2) | 2 | 2.75
PHC2 (polyhomeotic homolog 2) | 3 | 0.703
